Source: the supplement of paper PMC12067093, “Discovery and optimisation of a covalent ligand for TRIM25 and its application to targeted protein ubiquitination” (Chemical Science, 2025)
The list shows a part of the results.

By UniProt entry, the sequences of proteins in these tests, tags left out. Where a name states a change or a piece, a line headed by the entry shows the natural chain unless it says otherwise.
UniProt Q8N884, whole entry, looked up: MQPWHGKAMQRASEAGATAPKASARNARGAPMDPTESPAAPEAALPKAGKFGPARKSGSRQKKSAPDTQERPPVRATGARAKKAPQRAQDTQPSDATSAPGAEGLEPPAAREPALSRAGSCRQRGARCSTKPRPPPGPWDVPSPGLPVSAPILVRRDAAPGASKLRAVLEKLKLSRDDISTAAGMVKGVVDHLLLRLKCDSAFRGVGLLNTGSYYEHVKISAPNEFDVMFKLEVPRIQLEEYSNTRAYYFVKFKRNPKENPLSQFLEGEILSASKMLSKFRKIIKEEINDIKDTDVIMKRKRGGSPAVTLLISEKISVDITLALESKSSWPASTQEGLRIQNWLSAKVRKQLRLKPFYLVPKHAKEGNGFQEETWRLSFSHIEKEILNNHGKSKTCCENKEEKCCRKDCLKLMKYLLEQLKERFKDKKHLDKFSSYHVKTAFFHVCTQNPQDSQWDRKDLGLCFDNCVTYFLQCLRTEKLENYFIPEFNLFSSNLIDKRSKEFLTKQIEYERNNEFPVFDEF
UniProt P53675: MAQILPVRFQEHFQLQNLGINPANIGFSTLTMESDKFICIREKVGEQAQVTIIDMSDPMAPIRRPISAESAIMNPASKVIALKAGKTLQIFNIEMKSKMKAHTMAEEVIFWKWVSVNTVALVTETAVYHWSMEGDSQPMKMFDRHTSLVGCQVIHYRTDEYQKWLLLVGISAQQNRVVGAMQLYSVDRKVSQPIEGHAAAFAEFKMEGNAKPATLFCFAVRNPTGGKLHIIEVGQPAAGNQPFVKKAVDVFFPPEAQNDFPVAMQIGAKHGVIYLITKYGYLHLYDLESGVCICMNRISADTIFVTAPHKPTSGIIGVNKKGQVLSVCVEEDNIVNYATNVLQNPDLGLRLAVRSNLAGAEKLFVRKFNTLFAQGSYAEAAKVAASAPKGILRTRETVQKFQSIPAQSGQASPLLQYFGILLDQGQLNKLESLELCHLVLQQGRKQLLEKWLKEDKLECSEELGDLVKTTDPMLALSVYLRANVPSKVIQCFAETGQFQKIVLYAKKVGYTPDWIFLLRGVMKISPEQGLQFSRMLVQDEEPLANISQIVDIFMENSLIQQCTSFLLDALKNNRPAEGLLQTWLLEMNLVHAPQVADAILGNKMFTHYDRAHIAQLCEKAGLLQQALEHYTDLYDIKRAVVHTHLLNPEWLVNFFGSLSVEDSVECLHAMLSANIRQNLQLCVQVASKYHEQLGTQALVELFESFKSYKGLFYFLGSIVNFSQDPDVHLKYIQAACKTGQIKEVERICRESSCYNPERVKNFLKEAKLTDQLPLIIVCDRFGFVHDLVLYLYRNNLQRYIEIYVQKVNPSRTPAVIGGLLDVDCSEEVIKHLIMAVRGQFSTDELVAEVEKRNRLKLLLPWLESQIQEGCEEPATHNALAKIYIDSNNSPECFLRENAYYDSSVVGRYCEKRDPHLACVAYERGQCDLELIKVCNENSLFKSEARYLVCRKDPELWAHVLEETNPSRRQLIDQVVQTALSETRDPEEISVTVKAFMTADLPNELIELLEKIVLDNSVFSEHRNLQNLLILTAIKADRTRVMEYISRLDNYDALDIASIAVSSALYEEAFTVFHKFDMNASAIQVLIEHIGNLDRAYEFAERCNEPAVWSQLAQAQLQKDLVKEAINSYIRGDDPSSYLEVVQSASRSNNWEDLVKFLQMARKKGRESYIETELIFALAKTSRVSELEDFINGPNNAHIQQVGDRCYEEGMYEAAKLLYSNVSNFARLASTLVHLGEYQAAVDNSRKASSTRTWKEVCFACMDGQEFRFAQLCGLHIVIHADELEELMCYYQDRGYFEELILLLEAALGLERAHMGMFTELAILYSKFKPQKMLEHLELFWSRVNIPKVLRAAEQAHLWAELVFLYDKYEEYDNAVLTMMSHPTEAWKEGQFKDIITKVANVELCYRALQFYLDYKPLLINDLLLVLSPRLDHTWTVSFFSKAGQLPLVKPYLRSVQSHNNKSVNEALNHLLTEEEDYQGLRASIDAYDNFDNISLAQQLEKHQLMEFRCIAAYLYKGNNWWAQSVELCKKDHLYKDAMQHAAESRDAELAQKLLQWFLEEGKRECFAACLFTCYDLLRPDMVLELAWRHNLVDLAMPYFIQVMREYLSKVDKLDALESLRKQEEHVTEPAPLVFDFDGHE
UniProt Q9Y259: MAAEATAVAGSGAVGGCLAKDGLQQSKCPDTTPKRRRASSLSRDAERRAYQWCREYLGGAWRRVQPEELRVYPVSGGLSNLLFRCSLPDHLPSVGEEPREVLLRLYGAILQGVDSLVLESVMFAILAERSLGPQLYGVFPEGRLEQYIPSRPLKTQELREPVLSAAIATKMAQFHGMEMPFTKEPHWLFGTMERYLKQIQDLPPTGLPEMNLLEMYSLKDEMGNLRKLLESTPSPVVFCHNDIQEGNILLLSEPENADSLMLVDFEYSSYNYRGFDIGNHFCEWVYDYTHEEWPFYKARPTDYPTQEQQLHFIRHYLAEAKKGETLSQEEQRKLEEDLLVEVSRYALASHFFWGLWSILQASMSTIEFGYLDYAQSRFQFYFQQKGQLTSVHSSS
UniProt O76071: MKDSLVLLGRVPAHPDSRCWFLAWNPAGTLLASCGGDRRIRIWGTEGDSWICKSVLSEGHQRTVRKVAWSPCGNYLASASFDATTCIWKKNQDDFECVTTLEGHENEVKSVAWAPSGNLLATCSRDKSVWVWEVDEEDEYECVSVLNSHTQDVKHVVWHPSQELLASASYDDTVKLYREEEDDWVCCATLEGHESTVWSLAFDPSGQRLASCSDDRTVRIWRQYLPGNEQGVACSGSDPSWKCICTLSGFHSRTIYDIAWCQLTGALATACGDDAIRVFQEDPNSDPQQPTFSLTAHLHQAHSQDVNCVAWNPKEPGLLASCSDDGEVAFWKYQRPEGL
UniProt O14578, whole entry, looked up: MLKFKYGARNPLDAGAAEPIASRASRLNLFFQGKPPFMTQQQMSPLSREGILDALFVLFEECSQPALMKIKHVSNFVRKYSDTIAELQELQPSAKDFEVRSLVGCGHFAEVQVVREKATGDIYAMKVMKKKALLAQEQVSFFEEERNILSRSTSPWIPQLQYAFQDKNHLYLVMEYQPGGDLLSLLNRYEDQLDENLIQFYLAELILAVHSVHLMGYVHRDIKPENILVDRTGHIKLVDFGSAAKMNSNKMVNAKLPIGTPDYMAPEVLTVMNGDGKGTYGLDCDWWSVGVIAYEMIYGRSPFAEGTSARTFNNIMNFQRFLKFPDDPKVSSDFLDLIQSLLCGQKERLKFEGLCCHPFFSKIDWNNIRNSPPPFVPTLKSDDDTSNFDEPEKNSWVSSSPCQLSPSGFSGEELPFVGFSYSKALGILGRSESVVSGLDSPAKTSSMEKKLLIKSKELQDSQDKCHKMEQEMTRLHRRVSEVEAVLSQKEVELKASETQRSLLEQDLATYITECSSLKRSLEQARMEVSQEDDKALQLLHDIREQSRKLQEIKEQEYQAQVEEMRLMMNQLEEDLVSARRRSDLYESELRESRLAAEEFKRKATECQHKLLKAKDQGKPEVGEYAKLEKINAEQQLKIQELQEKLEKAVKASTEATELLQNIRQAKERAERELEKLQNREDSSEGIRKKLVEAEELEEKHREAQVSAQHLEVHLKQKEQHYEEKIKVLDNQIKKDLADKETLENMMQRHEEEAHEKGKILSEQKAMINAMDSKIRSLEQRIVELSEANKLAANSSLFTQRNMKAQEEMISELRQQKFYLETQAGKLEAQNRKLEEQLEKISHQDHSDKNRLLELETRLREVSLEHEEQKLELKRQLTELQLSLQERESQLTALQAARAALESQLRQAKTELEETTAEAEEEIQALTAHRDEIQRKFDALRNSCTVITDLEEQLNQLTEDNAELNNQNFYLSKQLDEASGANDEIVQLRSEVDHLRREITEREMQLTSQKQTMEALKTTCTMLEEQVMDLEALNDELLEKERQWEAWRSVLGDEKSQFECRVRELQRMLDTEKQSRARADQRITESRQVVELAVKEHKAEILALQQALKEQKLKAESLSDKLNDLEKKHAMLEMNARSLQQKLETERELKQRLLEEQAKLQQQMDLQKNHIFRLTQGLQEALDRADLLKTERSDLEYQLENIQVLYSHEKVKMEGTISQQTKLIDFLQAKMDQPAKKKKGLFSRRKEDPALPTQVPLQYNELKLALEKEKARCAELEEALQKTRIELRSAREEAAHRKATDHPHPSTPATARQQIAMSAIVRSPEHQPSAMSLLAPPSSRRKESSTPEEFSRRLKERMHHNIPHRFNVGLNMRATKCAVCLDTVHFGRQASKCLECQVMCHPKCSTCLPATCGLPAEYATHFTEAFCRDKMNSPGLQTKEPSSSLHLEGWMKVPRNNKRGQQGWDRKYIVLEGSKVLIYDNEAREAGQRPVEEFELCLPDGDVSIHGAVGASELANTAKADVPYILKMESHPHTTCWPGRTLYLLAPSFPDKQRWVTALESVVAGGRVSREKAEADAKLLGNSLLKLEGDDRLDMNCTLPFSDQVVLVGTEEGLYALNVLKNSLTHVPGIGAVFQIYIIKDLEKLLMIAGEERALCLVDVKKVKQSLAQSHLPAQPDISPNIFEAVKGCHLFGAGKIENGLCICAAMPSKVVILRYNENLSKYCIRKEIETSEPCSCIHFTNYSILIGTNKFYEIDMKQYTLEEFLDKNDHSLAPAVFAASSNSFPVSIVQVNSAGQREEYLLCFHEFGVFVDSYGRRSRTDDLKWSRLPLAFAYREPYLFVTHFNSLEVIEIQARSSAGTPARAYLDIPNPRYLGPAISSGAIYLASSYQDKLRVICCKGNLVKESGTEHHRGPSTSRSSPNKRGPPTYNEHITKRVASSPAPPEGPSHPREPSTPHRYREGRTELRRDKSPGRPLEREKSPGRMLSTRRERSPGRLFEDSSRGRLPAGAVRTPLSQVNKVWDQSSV
UniProt Q92989: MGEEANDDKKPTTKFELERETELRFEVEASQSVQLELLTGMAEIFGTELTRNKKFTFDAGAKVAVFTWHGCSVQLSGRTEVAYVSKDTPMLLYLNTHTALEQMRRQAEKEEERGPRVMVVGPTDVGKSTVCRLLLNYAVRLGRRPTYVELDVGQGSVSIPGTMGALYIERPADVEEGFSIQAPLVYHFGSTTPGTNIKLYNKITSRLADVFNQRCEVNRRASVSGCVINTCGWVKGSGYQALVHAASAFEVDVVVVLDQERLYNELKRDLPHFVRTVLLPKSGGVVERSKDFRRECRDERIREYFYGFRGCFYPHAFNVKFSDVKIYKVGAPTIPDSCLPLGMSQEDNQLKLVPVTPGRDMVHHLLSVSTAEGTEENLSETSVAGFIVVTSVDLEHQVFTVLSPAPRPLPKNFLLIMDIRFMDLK
UniProt P00746, whole entry: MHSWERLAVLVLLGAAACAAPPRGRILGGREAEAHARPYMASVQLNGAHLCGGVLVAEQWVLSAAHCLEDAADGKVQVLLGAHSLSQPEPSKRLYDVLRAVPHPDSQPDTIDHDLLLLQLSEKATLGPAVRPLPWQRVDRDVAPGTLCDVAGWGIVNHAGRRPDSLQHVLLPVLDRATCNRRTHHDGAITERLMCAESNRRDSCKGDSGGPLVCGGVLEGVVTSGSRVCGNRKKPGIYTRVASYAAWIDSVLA
UniProt Q96JM3: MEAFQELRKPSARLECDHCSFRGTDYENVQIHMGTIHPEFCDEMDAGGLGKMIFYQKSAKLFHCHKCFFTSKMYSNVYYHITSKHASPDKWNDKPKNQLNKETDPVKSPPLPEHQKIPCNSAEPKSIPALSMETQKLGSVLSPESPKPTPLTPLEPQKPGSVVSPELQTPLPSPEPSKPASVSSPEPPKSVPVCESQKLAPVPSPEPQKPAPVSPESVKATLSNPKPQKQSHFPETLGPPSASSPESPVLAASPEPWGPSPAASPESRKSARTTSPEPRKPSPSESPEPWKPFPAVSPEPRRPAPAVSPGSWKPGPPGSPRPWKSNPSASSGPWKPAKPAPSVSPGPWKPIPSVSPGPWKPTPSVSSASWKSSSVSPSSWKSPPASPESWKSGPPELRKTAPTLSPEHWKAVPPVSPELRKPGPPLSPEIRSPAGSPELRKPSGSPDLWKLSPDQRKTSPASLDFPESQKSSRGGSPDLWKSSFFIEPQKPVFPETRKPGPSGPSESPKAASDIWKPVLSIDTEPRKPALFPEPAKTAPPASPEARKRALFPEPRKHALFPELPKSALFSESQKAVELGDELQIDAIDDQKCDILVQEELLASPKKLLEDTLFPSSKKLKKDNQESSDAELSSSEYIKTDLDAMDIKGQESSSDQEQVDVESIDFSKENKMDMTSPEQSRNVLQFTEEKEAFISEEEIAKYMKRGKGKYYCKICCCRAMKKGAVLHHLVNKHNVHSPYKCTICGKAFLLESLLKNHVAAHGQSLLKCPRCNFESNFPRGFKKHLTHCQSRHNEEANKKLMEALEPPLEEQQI
UniProt Q8WUH1: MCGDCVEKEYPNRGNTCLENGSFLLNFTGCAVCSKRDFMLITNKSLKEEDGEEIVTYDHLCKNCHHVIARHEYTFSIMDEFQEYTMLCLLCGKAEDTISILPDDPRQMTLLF

compound: CC1Cc2ccccc2N1C(=O)C1CCCN(C1)C(=O)CCl (mixture of isomers) [TRIM25 ligand 11 (diastereomer mixture)]; test: probe-labelled cysteine peptide fold change vs DMSO (competition) (log2 fold change); higher = less target engagement (more negative = stronger competition); details: 10 µM; THP-1; incubation time: 4 h
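Note: competitive chemoproteomic profiling in live THP-1 cells with an iodoacetamide desthiobiotin (IA-DTB) probe, comparing probe-labelled peptide intensities in compound-treated cells against DMSO-treated controls.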

| Target | probe-labelled cysteine peptide fold change |
| --- | --- |
| CGAS_Q8N884_199_CDSAFR (UniProt Q8N884) | -0.0504 |
| CLTCL1_P53675_459_LECSEELGDLVK (UniProt P53675) | 0.213 |
| CLTCL1_P53675_617_AHIAQLCEK (UniProt P53675) | 0.0881 |
| CLTC_Q00610_934_GQCDLELINVCNENSLFK (UniProt Q00610) | 0.0433 |
| CLIP2_Q9UDT6_525_RGEIEELQQCLLHSGPPPPDHPDAAEILR (UniProt Q9UDT6) | -0.0137 |
| CLPB_Q9H078_572_INEIVYFLPFCHSELIQLVNK (UniProt Q9H078) | 0.00906 |
| CHKB_Q9Y259_85_CSLPDHLPSVGEEPR (UniProt Q9Y259) | 0.241 |
| CIAO1_O76071_245_CICTLSGFHSR (UniProt O76071) | 0.0372 |
| CIT_O14578_1655_ALCLVDVK (UniProt O14578) | 0.171 |
| CLP1_Q92989_71_VAVFTWHGCSVQLSGR (UniProt Q92989) | -0.13 |
| CLASP1_Q7Z460_1423_AAEEAASTLASSIHPEQCIK (UniProt Q7Z460) | 0.171 |
| CHKB_Q9Y259_282_GFDIGNHFCEWVYDYTHEEWPFYK (UniProt Q9Y259) | 0.315 |
| CHM_P24386_364_NFLHCLGR (UniProt P24386) | -0.0139 |
| CLTC_Q00610_666_RAVVHTHLLNPEWLVNYFGSLSVEDSLECLR (UniProt Q00610) | -0.162 |
| CHD9_Q3L8U1_1257_FSKPDSDRFVFLLCTR (UniProt Q3L8U1) | -0.175 |
| CLIC1_O00299_89_IEEFLEAVLCPPRYPK (UniProt O00299) | 0.0826 |
| CIAO1_O76071_34_CWFLAWNPAGTLLASCGGDRR (UniProt O76071) | -0.439 |
| CKAP5_Q14008_1500_CEMPELVQHK (UniProt Q14008) | 0.0192 |
| CFD_P00746_148_VDRDVAPGTLCDVAGWGIVNHAGR (UniProt P00746) | 0.0362 |

In a second layout: entries from further up.
Target	probe-labelled cysteine peptide fold change
CIAO1_O76071_245_CICTLSGFHSR (UniProt O76071)	0.0372
CIT_O14578_1655_ALCLVDVK (UniProt O14578)	0.171

Additional results follow.

| Target | probe-labelled cysteine peptide fold change |
| --- | --- |
| CHD1_O14646_502_GNSCILADEMGLGK (UniProt O14646) | 0.0146 |
| CHCHD7_Q9BUK0_16_LRDPDINPCLSESDASTR (UniProt Q9BUK0) | -0.0672 |
| CHST14_Q8NCH0_117_AVCGQPGMPR (UniProt Q8NCH0) | 0.169 |
| CIP2A_Q8TCG1_6_MDSTACLK (UniProt Q8TCG1) | -0.0544 |
| CLTA_P09496_218_LCDFNPK (UniProt P09496) | -0.262 |
| CHAF1A_Q13111_761_EFQEHCR (UniProt Q13111) | -0.066 |
| CHAMP1_Q96JM3_592_CDILVQEELLASPK (UniProt Q96JM3) | -0.0146 |
| CHURC1_Q8WUH1_88_EEDGEEIVTYDHLCK (UniProt Q8WUH1) | 0.0606 |
| CIZ1_Q9ULV3_631_LGEIQHMSQACLLSLLPVPR (UniProt Q9ULV3) | 0.111 |
| CHUK_O15111_30_LGTGGFGNVCLYQHR (UniProt O15111) | -0.101 |
| CLTC_Q00610_217_MEGNAEESTLFCFAVR (UniProt Q00610) | 0.0197 |
| CHSY1_Q86X52_48_ASPEGCR (UniProt Q86X52) | -0.172 |
| CKAP2_Q8WWK9_674_ETDAFVCRPNAALCR (UniProt Q8WWK9) | -0.139 |
| CFAP20_Q9Y6A4_61_ITDNDIQSLVLEIEGTNVSTTYITCPADPKK (UniProt Q9Y6A4) | 0.168 |
| CLTCL1_P53675_918_RDPHLACVAYER (UniProt P53675) | -0.0314 |
| CLASP2_O75122_157_EACITVAHLSTVLGNK (UniProt O75122) | 0.303 |
| CLTC_Q00610_491_VIQCFAETGQVQK (UniProt Q00610) | -0.0337 |
| CHD4_Q14839_396_AYHMVCLDPDMEK (UniProt Q14839) | 0.104 |
| CLTC_Q00610_666_AVVHTHLLNPEWLVNYFGSLSVEDSLECLR (UniProt Q00610) | 0.248 |
